Data source: PubChem BioAssay AID1671195 (Yale University, 2021)
In all, the deposit lists about 22,000 reagents; shown is a random part of them. Over the whole deposit, about 1,510 (6.9%) were called active. 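Active includes knockdowns raising or lowering LDL uptake; positive z-scores mean more uptake, negative mean less.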

Purpose: 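Genes whose knockdown alters LDL uptake in liver cancer cells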 (primary screen)
Cell system: human Huh7 hepatoma cells
Reagent: siRNA pool against human genes, 18 nM
Timing: about 2 to 2.5 days of knockdown, then 8 h LDL uptake
Treatment: DiI-labelled LDL at 30 µg/ml for 8 h, in lipoprotein-deficient serum medium
Detection: 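Per-cell DiI-LDL intensity by automated imaging; well means scaled to the plate median and given as a robust z-score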
Direction: robust z-score: higher = more LDL uptake after knockdown
Hit rule: 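Active when two or more replicates show a robust z-score above 2 or below -2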

target | robust z-score, replicate 1 | robust z-score, replicate 2 | robust z-score, replicate 3 | outcome
ARID1A (AT-rich interaction domain 1A) | -1.02 | -0.215 | -0.556 | inactive
CFAP161 (cilia and flagella associated protein 161) | -0.673 | -0.823 | -0.318 | inactive
SST (somatostatin) | -0.181 | 0.384 | 1.82 | inactive
HHLA1 (HHLA1 neighbor of OC90) | -0.375 | -0.953 | 0.391 | inactive
FPGS (folylpolyglutamate synthase) | 0.037 | 0.343 | 0.378 | inactive
LINC00670 (long independently transcribed non-coding RNA 670) | 0.175 | 0.113 | 0.442 | inactive
GMPS (guanosine monophosphate synthase) | -0.799 | -0.329 | -0.764 | inactive
MRPL30 (mitochondrial ribosomal protein L30) | 0.133 | -0.557 | 0.419 | inactive
KRTAP11-1 (keratin associated protein 11-1) | -1.1 | -0.918 | -1.16 | inactive
ERV3-1 (endogenous retrovirus group 3 member 1, envelope) | 2.18 | 1.14 | 1.61 | inactive
NDUFAF5 (NADH:ubiquinone oxidoreductase complex assembly factor 5) | -0.134 | 0.364 | -0.308 | inactive
LOC440870 (retired record) | -0.472 | -0.758 | -0.659 | inactive
SLC6A6 | -0.556 | -0.954 | -0.561 | inactive
ADIG (adipogenin) | -0.268 | -0.631 | -0.773 | inactive
GOLGA6A (golgin A6 family member A) | -0.511 | 0.591 | -0.316 | inactive
ZNF48 (zinc finger protein 48) | -0.122 | -0.232 | 0.0607 | inactive
NDRG2 (NDRG family member 2) | -0.71 | -1.11 | -1 | inactive
NDUFV2 (NADH:ubiquinone oxidoreductase core subunit V2) | 1.93 | 1.32 | 2.25 | inactive
FERMT1 (FERM domain containing kindlin 1) | 0.462 | -0.987 | -0.127 | inactive
BRD1 (bromodomain containing 1) | -1.02 | -0.812 | 0.261 | inactive
TPD52L1 (TPD52 like 1) | -0.411 | 0.362 | -0.257 | inactive
LOC391016 (retired record) | 0.936 | 0.6 | 1.41 | inactive
RHBDD1 (rhomboid domain containing 1) | 0.806 | 1.29 | 0.893 | inactive
KIF18A (kinesin family member 18A) | -0.289 | -0.0637 | -0.153 | inactive
C19orf31 (retired record) | -0.299 | -0.817 | -1.13 | inactive
LOC138729 (retired record) | -1.94 | -2 | -1.93 | inactive
LINC02028 (long independently transcribed non-coding RNA 2028) | 0.475 | 1.05 | 1 | inactive
DIRAS3 (DIRAS family GTPase 3) | -0.346 | -0.143 | -0.0718 | inactive
HK3 (hexokinase 3) | -0.41 | 0.167 | 0.457 | inactive
TTC9B (tetratricopeptide repeat domain 9B) | -1.57 | -0.643 | -1.09 | inactive
OR51Q1 (olfactory receptor family 51 subfamily Q member 1) | -1.93 | -1.96 | -1.75 | inactive
LINC00477 (long independently transcribed non-coding RNA 477) | 0.4 | 0.394 | 0.414 | inactive
LRRC40 (leucine rich repeat containing 40) | 0.598 | 0.0144 | -1.24 | inactive
ACSM2B (acyl-CoA synthetase medium chain family member 2B) | -1.54 | -0.944 | -1.76 | inactive
LOC286126 (retired record) | -0.2 | -0.75 | -0.941 | inactive
NTNG2 (netrin G2) | 0.969 | 1.27 | 1.1 | inactive
LOC284912 | 0.474 | 0.993 | 0.973 | inactive
NRSN1 (neurensin 1) | 0.41 | -0.566 | -0.045 | inactive
ADAT2 (adenosine deaminase tRNA specific 2) | -2.81 | -1.35 | -1.16 | inactive
STAU2 (staufen double-stranded RNA binding protein 2) | 0.384 | 1.01 | 1.15 | inactive
ZNF254 (zinc finger protein 254) | -0.466 | -0.285 | -0.201 | inactive
PGAM1P8 (phosphoglycerate mutase 1 pseudogene 8) | 0.655 | 0.0594 | 0.408 | inactive
SH3GL3 (SH3 domain containing GRB2 like 3, endophilin A3) | 2.15 | 0.155 | 0.367 | inactive
TCHHL1 (trichohyalin like 1) | -0.704 | 0.00425 | -0.142 | inactive
SH3RF2 (SH3 domain containing ring finger 2) | -0.237 | 0.486 | -0.531 | inactive
SEPTIN6 (septin 6) | 1.14 | -0.323 | 0.285 | inactive
COX4I1 (cytochrome c oxidase subunit 4I1) | 0.663 | 1.3 | 0.0275 | inactive
ATP5MJ (ATP synthase membrane subunit j) | 0.747 | 1.65 | 0.853 | inactive
MTMR2 (myotubularin related protein 2) | -1.12 | -0.811 | -1.21 | inactive
C10orf95 (chromosome 10 open reading frame 95) | -0.774 | -1.11 | -1.26 | inactive
GXYLT1 (glucoside xylosyltransferase 1) | -0.104 | -0.0462 | 0.292 | inactive
OR11H13P | -0.651 | -1.31 | -0.711 | inactive
UBE3A (ubiquitin protein ligase E3A) | 0.228 | 3.1 | 1.14 | inactive
RNF14 (ring finger protein 14) | 0.316 | 0.357 | -0.424 | inactive
TYRP1 (tyrosinase related protein 1) | 0.452 | -0.232 | 0.597 | inactive
CHAF1A (chromatin assembly factor 1 subunit A) | -0.757 | -1.76 | -1.31 | inactive
JMJD6 | -0.328 | -0.547 | -0.806 | inactive
LINC00960 (long independently transcribed non-coding RNA 960) | 0.318 | 0.567 | 0.775 | inactive
OR10H3 (olfactory receptor family 10 subfamily H member 3) | 0.0998 | -0.337 | 0.503 | inactive
METTL8 (methyltransferase 8, tRNA N3-cytidine) | 0.194 | -0.522 | -0.216 | inactive
MRPL54 (mitochondrial ribosomal protein L54) | -0.592 | 1.35 | 0.875 | inactive
ZNF792 (zinc finger protein 792) | -0.947 | -0.0231 | -0.0391 | inactive
LOC284120 (retired record) | 0.371 | 0.516 | 0.57 | inactive
GSTP1 (glutathione S-transferase pi 1) | 1.71 | 2.24 | 1.28 | inactive
NKAIN1 (sodium/potassium transporting ATPase interacting 1) | -0.919 | -0.676 | -0.771 | inactive
TRMT10A (tRNA methyltransferase 10A) | 1.76 | 1.55 | 1.06 | inactive
ATP6AP2 (ATPase H+ transporting accessory protein 2) | -0.164 | -0.836 | -0.6 | inactive
NUDT22 (nudix hydrolase 22) | 0.665 | 0.657 | 1.39 | inactive

4 entries already listed, sorted by “robust z-score, replicate 3”, highest first:
target | robust z-score, replicate 1 | robust z-score, replicate 2 | robust z-score, replicate 3 | outcome
UBE3A (ubiquitin protein ligase E3A) | 0.228 | 3.1 | 1.14 | inactive
GXYLT1 (glucoside xylosyltransferase 1) | -0.104 | -0.0462 | 0.292 | inactive
RNF14 (ring finger protein 14) | 0.316 | 0.357 | -0.424 | inactive
OR11H13P | -0.651 | -1.31 | -0.711 | inactive
